In the supplement of paper PMC6821926, “Diaminoquinazoline MMV675968 from Pathogen Box inhibits Acinetobacter baumannii growth through targeting of dihydrofolate reductase” (Scientific Reports, 2019):
± gives the uncertainty stated by the source. The list shows a part of the results.

Test system: Acinetobacter baumannii Mahidol
Assay: percent growth relative to DMSO-treated control; higher = less growth inhibition
Conditions: 10 µM; 18 h

Row | Structure (SMILES) | percent growth [%]
1 | Cc1nnc(NC(=O)c2cn(-c3ccccc3)nc2-c2ccccc2C)o1 | 115 ± 49
2 | COc1cc(C2=NCCN2)cc2cc(-c3ccc(C4=NCCN4)cc3)oc12 | 98.6 ± 4.1
3 | N#CCN(CCCCN1CCN(c2ccc(F)cc2)CC1)C(=O)OCc1ccccc1 | 78.6 ± 52
4 | c1ccc(Oc2ccc(-c3cncc(-c4ccc5[nH]ccc5c4)n3)cc2)cc1 | 99.8 ± 9
5 | COc1ccccc1OCCCCn1c(C2CC2)nc2ccccc21 | 105 ± 18
6 | COc1ccc(-c2cncc3ccc(C(=O)NCCCn4ccnc4)nc23)cc1 | 97.7 ± 10
7 | Clc1ccc(Cl)c(CO[C@H]2CCCC[C@@H]2n2ccnc2)c1 | 92.8 ± 6.9
8 | O=C(Nc1ccc2c(c1)B(O)OC2)c1ccccc1C(F)(F)F | 103 ± 13
9 | COc1ccc(CN2CCOc3ccc(C(C)(O)CN(C)C)cc3C2)cc1C (stereo not drawn) | 96.9 ± 5.9
10 | O=C(NC1CC1)c1ccc(N2CCC(Cc3ccccc3)CC2)nc1 | 95.4 ± 33
11 | Nc1ncnc2c1ncn2[C@@H]1O[C@H](COS(=O)(=O)NC(=O)c2ccccc2O)[C@@H](O)[C@H]1O | 98.1 ± 6.8
12 | O=C(CN1CCOCC1)Nc1ccc2ncnc(Nc3ccc(OCc4cccc(F)c4)c(Cl)c3)c2c1 | 88.6 ± 11
13 | Nc1ncnc2c1c(-c1cnc3ccccc3c1)nn2CC1CCNCC1 | 97.2 ± 4.6
14 | O=C(Nc1ccnc(-c2cccnc2)n1)c1cc(C(F)(F)F)cc(C(F)(F)F)c1 | 79.2 ± 8.1
15 | CCn1ncc2c(NC3CCOCC3)c(CNC(=O)c3ccnn3C)c(C)nc21 | 101 ± 4
16 | CCOc1ccccc1NC(C)C(=O)Nc1cc(C(F)(F)F)ccc1N1CCOCC1 (stereo not drawn) | 99.9 ± 8.7
17 | COc1ccc(C2=NN(C3CCCCCC3)C(=O)C2(C)C)cc1OCCCCOc1ccc(-c2nn[nH]n2)cc1 | 95.1 ± 9.8
18 | Cc1ccc(S(=O)(=O)Nc2ccc(CN3CCN(C(=O)c4cccc(C#N)c4)CC3)cc2)cc1 | 95.7 ± 9.9
19 | CC(C)(C)c1cnc(NC(=O)c2ccccc2O)s1 | 105 ± 6.9

Three structures already listed, arranged by molecular weight, low to high:
Row | Structure (SMILES) | percent growth [%]
5 | COc1ccccc1OCCCCn1c(C2CC2)nc2ccccc21 | 105 ± 18
15 | CCn1ncc2c(NC3CCOCC3)c(CNC(=O)c3ccnn3C)c(C)nc21 | 101 ± 4
3 | N#CCN(CCCCN1CCN(c2ccc(F)cc2)CC1)C(=O)OCc1ccccc1 | 78.6 ± 52

The results go on.

Row | Structure (SMILES) | percent growth [%]
20 | Cc1ccc2oc(-c3cc(NC(=O)Cc4ccccc4)ccc3Cl)nc2c1 | 86.4 ± 35
21 | COc1cccc(CC(=O)N2CCC(n3c(C)nc4ccc(F)cc43)CC2)c1 | 92.5 ± 3.3
22 | Nc1ccc(C(=O)Nc2ccc(-c3nc4ccccc4o3)cc2)cc1 | 95.3 ± 13
23 | c1ccc(C[C@@H]2CN(c3nccc(Oc4ccc(-n5ccnc5)cc4)n3)CCN2)cc1 | 88.2 ± 3.6
24 | Brc1c(-c2ccc3c(c2)OCO3)nc2ncccn12 | 94.3 ± 17
25 | CCN(CC)CCCN1CCN(C(=O)c2cccc(-c3noc(C(F)(F)F)n3)c2)CC1 | 86 ± 12
26 | O=C(NC1CCCCC1)N1CCN(Cc2ccc3c(c2)OCO3)CC1 | 83.8 ± 20
27 | COc1cccc(NC(=O)c2c(NC(=O)c3cccnc3)sc3c2CCC3)c1 | 105 ± 12
28 | O=C(Nc1cnc2ccccc2c1)c1cccc(-n2cnnn2)c1 | 103 ± 6.9
29 | Cc1cnc(CCNC(=O)c2cc(-c3ccc(Cl)cc3)cs2)[nH]1 | 86.3 ± 7.8
30 | O=C(c1ccc(NCCO)cc1)C1C[C@H]1c1ccc(Cl)cc1 (stereo partly drawn) | 87.7 ± 15
31 | CN1CCN(c2cc(-c3ccc(F)cc3)nc(-c3ccncc3)n2)CC1 | 55.3 ± 45
32 | CCC(=O)Nc1ccccc1C(=O)Nc1ccccn1 | 95.9 ± 8.1
33 | O[C@@H](c1cc(C(F)(F)F)nc2c(C(F)(F)F)cccc12)[C@H]1CCCCN1 | 73.3 ± 30
34 | Cc1cc2ccccc2n1CC(=O)N1CC(C(=O)N2CCCCC2)Oc2ccccc21 (stereo not drawn) | 79.5 ± 30
35 | CS(=O)(=O)c1ccc(C(=O)N(CC2CCCO2)c2nc3ccccc3s2)cc1[N+](=O)[O-] (stereo not drawn) | 143 ± 36
36 | NCC(=O)N1CCn2c(nc(-c3ccccc3)c2Nc2ccc3c(c2)OCO3)C1 | 85.8 ± 5
37 | O=C(Nc1nnc(-c2ccc(Cl)s2)o1)c1ccc(Cl)s1 | 91 ± 18
38 | COc1ccc(N(CCc2cccc(C)n2)C(=O)C2CCCCC2)cc1 | 98.2 ± 4.3
